## Library screen at single concentrations

By UniProt entry, the sequences of proteins in these tests, tags left out. Residues count along the entry.
UniProt P9WNZ1, whole entry: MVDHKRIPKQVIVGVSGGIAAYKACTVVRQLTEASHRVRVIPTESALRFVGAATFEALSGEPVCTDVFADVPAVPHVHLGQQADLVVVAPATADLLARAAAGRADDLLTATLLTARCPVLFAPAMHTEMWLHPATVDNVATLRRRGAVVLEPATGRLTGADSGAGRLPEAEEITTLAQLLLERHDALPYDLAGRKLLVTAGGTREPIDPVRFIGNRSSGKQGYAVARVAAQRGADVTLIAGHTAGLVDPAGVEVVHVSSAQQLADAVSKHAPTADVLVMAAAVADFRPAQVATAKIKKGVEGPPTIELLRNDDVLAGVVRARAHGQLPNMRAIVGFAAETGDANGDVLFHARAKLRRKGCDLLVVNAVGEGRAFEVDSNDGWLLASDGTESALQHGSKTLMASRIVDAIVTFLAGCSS
UniProt P9WFT3, whole entry: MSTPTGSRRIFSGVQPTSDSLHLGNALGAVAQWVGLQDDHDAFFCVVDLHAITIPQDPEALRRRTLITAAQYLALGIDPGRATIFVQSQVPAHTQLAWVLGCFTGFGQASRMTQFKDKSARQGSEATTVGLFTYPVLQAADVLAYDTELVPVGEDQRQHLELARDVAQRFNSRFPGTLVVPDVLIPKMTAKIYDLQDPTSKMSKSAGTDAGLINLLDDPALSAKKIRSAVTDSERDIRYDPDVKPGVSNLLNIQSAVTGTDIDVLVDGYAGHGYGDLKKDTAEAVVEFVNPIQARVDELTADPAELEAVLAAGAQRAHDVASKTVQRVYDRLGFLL
UniProt A4I591, 1-473: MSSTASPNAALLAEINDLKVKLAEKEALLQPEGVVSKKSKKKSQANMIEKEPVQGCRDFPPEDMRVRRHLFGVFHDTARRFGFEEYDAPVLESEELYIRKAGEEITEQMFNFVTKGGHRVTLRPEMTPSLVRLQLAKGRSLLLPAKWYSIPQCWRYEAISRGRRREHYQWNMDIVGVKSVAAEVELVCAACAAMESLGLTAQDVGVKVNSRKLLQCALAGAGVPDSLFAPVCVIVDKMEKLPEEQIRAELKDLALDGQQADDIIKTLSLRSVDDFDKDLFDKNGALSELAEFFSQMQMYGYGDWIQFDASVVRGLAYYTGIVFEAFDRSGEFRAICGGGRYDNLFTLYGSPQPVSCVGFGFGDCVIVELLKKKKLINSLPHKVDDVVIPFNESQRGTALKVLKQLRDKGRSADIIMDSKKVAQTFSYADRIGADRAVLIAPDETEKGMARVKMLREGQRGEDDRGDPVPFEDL

Data taken from ChEMBL document CHEMBL3988442, “University of Dundee, Small-Polar-MMV Screening Library” (2021).

CoaBC: 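Coenzyme A biosynthesis protein CoaBC, Mycobacterium tuberculosis (UniProt P9WNZ1). Enzyme assay of CoaBC with a phosphate dye (Biomol Green) read at 650 nm. Compounds at 30 µM. Higher reads as stronger inhibition, judged from the few compounds that gave an IC50. Most strong results did not repeat in a second test. Size under these conditions: about 67,000 compounds, about 40 of them at 50% or above in at least one test.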
Toxoplasma: 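Assay of Toxoplasma gondii numbers, read through their beta-galactosidase reporter with a colour substrate. Compounds at 10 µM. The record gives no direction; the compounds picked for IC50 retests had high values, so higher reads as fewer parasites. Size under these conditions: about 67,000 compounds, about 260 of them at 50% or above in at least one test.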
Leishmania in macrophages: 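Cell assay of Leishmania donovani living inside macrophages; the read-out is not stated. Tested at 30 µM. Higher reads as stronger inhibition (inferred: compounds with an IC50 in retests scored well above the rest). Size under these conditions: about 69,000 compounds, about 1,000 of them at 50% or above in at least one test.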
MtTrpRS: 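Tryptophan-tRNA ligase, Mycobacterium tuberculosis (UniProt P9WFT3). Enzyme assay of tryptophanyl-tRNA synthetase; the read-out is not stated. Concentration: 10 µM. Direction is not recorded; retested compounds ran higher, which suggests that high means inhibition. Size under these conditions: about 65,000 compounds, about 64 of them at 50% or above in at least one test.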
LiHisRS: 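Enzyme assay of histidyl-tRNA synthetase; the read-out is not stated. Target: Histidine-tRNA ligase, Leishmania infantum (UniProt A4I591). Compounds at 30 µM. Direction is inferred from retests: higher values go with stronger inhibition. The assay is labelled LdHisRS but filed under L. infantum. Of about 69,000 compounds tested this way, about 410 (0.6%) reached 50% or more in at least one test.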

Results are given as percent effect.
How 0% and 100% were set is not recorded. Most values in the screen are low, and negative values occur.
The compounds are a random part of those screened.
A dash means the value is not listed here; it may have been measured.

compound | CoaBC | Toxoplasma | Leishmania in macrophages | MtTrpRS | LiHisRS
Cc1nccc(CNc2cc(N3CCCC3CO)ncn2)n1 (stereo not drawn) | -7.239 | 18.73 | 7.672 | 4.259 | 3.419
Cc1nc(C)n(CC2CN(CCOCC(F)(F)F)CCO2)n1 (stereo not drawn) | 13.17 | 3.431 | -3.54 | 1.605 | 6.757
COCCN(Cc1sccc1C)C(=O)COc1cccnc1 | 5.368 | 6.685 | 17.8 | 0.4468 | 9.333
Cc1noc(CN(Cc2ccc3c(c2)OCCO3)Cc2ccco2)n1 | 12.74 | 4.748 | 11.78 | -1.175 | 0
CC(C)Cc1nc(CNCc2cccc(N3CCCC3=O)c2)no1 | 5.19 | -5.812 | -27.71 | -1.36 | 8.434
CN(Cc1nc(N2CCCC2)ncc1-c1ccncc1)C(=O)C(C)(C)C | 4.932 | - | - | -1.187 | 38.03
CCc1nc(CN2CCCN(C(=O)C(C)n3ccnc3)CC2)cs1 (stereo not drawn) | -1.687 | 1.059 | 38.19 | 2.638 | 21.92
CCN(C(=O)c1cc(C)nc2ccccc12)C1CC(=O)NC1=O (stereo not drawn) | - | 5.42 | 6.177 | 2.58 | 28.57
O=C(O)C(F)(F)F.O=C(O)C(F)(F)F.[H][C@]12CCN(Cc3cccs3)[C@@]1([H])C[C@H](C(=O)N1CCN(C)CC1)O2 | - | -2.243 | 47.06 | - | -
Cc1ccc(CC(=O)NCC(O)c2cccc(C(F)(F)F)c2)cn1 (stereo not drawn) | - | 0.7551 | 4.516 | -0.1009 | 9.859
Cc1[nH]ncc1C(=O)N1CCCC1c1noc(C2CC2)n1 (stereo not drawn) | 12.27 | -58.1 | 4.44 | 4.543 | 7.143
Cn1ncc2c1C(COCC1CC1)CN(Cc1ccsc1)C2 (stereo not drawn) | -6.667 | 13 | -1.339 | 0.6352 | 12.5
CC(Nc1ccc(C(F)(F)F)cc1C#N)c1cccc(S(N)(=O)=O)c1 (stereo not drawn) | -1.24 | 16.05 | 23.6 | 5.431 | 13.39
CC(C)N1CCOCC2(CCCN(C(=O)c3cncn3C)C2)C1.O=C(O)C(F)(F)F (stereo not drawn) | - | -20.48 | 3.923 | - | -
CCCN(CCc1ccccc1)c1ncnc2oc(C)nc12 | 1.025 | -7.366 | -1.856 | 1.805 | 4.286
Cc1ccc(CN2CC[C@H]3OCC[C@@H](C(=O)NC4CC4)[C@@H]3C2)o1 | 3.342 | - | - | -3.226 | 3.008
Cc1cc(C)n(C2CN(CCC(=O)NCCc3ccccc3)C2)n1 | -4.207 | -6.452 | -8.359 | 5.602 | 34.12
CC(C)c1cc(C(=O)N2CCN(CC3CC3)[C@@H]3CS(=O)(=O)C[C@@H]32)no1 | -4 | - | - | -4.848 | 14.52
CN(C)C(=O)[C@H]1C[C@H]2OCC[C@H]2N(Cc2ccc3c(c2)OCO3)C1 | 1.015 | - | - | -6.337 | 29.41
Cc1nc(C)n(CC2CCCN(Cc3cccc4c3OCCO4)C2)n1 (stereo not drawn) | 4.563 | -32.12 | -3.192 | 20.68 | 14.91
Cc1nc2[nH]cnc(Nc3cc(C)n(C)n3)c-2n1 | 3.924 | -21.41 | 75.58 | -17.22 | 27.5
O=C(c1ccoc1)N1CCOCC2(CCN(Cc3cccs3)C2)C1 (stereo not drawn) | 5.549 | -1.433 | 11.26 | -3.103 | -6.944
COc1ccc(NC(=O)c2ccc[nH]2)c(N2CCN(C(C)=O)CC2)n1 | 7.246 | 15.31 | 2.723 | 3.189 | 17.31
O=C(NCc1cccs1)[C@H]1CC[C@@H]2[C@@H](CCN2C2CCC2)O1 | 1.003 | - | - | 1.936 | 15.38
[H][C@@]12CN(C(=O)c3cccnc3)C[C@]1([H])OCCN2CCN1CCCC1 | - | -3.426 | -6.937 | - | -
CCN1CCC(CC(=O)N[C@H](C(=O)O)c2cccc(F)c2F)CC1 | 3.175 | -5.472 | -3.39 | -3.888 | 2.778
O=C(c1cc[nH]n1)N1CCc2ncnc(N3CCSCC3)c2CC1 | -1.098 | -2.989 | 22.6 | 1.722 | 15.38
COc1ccc(C(=O)N2CC[C@H](CO)[C@H](O)C2)c(C)c1 | 6.579 | -1.409 | 26.16 | 0.4177 | 19.05
Cc1ccc(OCC(C)NS(C)(=O)=O)cc1C (stereo not drawn) | -2.101 | -5.493 | 10.17 | -3.945 | 9.402
COc1cc(OC)cc(N2CCC(NCc3cccs3)C2=O)c1 (stereo not drawn) | 3.667 | 15.1 | 21.94 | -3.367 | 12.9
O=C(NCc1cccs1)[C@H]1CC[C@@H]2[C@@H](CCN2Cc2ccoc2)O1 | -3.704 | - | - | -8.984 | 12.5
Cc1cc(C)n(C2CN(CC(O)Cn3cccn3)C2)n1 (stereo not drawn) | -3.686 | 3.445 | -13.95 | -0.9709 | 13.49

The first 3 entries again:

{"compound": "Cc1nccc(CNc2cc(N3CCCC3CO)ncn2)n1", "stereo": "stereo not drawn", "CoaBC": -7.239, "Toxoplasma": 18.73, "Leishmania in macrophages": 7.672, "MtTrpRS": 4.259, "LiHisRS": 3.419}
{"compound": "Cc1nc(C)n(CC2CN(CCOCC(F)(F)F)CCO2)n1", "stereo": "stereo not drawn", "CoaBC": 13.17, "Toxoplasma": 3.431, "Leishmania in macrophages": -3.54, "MtTrpRS": 1.605, "LiHisRS": 6.757}
{"compound": "COCCN(Cc1sccc1C)C(=O)COc1cccnc1", "CoaBC": 5.368, "Toxoplasma": 6.685, "Leishmania in macrophages": 17.8, "MtTrpRS": 0.4468, "LiHisRS": 9.333}